{
  "source": "the supplement of paper PMC12024529",
  "key": {"HEK293 WT BDD-FVIII-Gluc": {"tested_on": "HEK293 WT BDD-FVIII-Gluc", "assay": "secreted FVIII-Gluc luciferase Z-score vs DMSO control; higher = more FVIII-Gluc secretion", "conditions": "5 µM; 24 h"}, "[1]": {"tested_on": "HEK293 p.N1941S BDD-FVIII-Gluc", "assay": "secreted FVIII-Gluc luciferase Z-score vs DMSO control; higher = more FVIII-Gluc secretion", "conditions": "5 µM; 24 h"}},
  "note": "Where a name gives a salt, the structure may show the parent alone. The list shows a part of the results. Plates or batches differ in their baseline, so values are only roughly comparable.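 HEK293 lines stably express B-domain-deleted factor VIII fused to Gaussia luciferase, wild type or a misfolding-prone missense mutant. Scores equal triplicate-well mean luminescence minus DMSO mean, divided by DMSO standard deviation; scores of 2 or higher are hits. Low scores may indicate reduced secretion or worse cell viability.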",
  "data": [
    {"smiles": "N#C[C@@H]1C[C@@H]2C[C@@H]2N1C(=O)[C@@H](N)C12CC3CC(CC(O)(C3)C1)C2", "values": [
      {"measurement": "secreted FVIII-Gluc luciferase Z-score", "setting": "HEK293 WT BDD-FVIII-Gluc", "result": "inactive: -2.98"},
      {"measurement": "secreted FVIII-Gluc luciferase Z-score", "setting": "[1]", "result": "inactive: 0.101"}
    ]},
    {"smiles": "CCC(NC(C)C)C(O)c1ccc(O)c(O)c1", "note": "(stereo not drawn) [Isoetharine Mesylate]", "values": [
      {"measurement": "secreted FVIII-Gluc luciferase Z-score", "setting": "HEK293 WT BDD-FVIII-Gluc", "result": "inactive: 0.85"},
      {"measurement": "secreted FVIII-Gluc luciferase Z-score", "setting": "[1]", "result": "inactive: 0.965"}
    ]},
    {"smiles": "COC(=O)C1=C(C)NC(C)=C(C(=O)OC)C1c1ccccc1[N+](=O)[O-]", "note": "[Nifedipine (Adalat)]", "values": [
      {"measurement": "secreted FVIII-Gluc luciferase Z-score", "setting": "HEK293 WT BDD-FVIII-Gluc", "result": "inactive: -0.615"},
      {"measurement": "secreted FVIII-Gluc luciferase Z-score", "setting": "[1]", "result": "inactive: 0.731"}
    ]},
    {"smiles": "COc1c2ccoc2cc2oc(=O)ccc12", "note": "[Bergapten]", "values": [
      {"measurement": "secreted FVIII-Gluc luciferase Z-score", "setting": "HEK293 WT BDD-FVIII-Gluc", "result": "inactive: -1.09"},
      {"measurement": "secreted FVIII-Gluc luciferase Z-score", "setting": "[1]", "result": "inactive: -0.152"}
    ]},
    {"smiles": "COc1cc(Nc2c(C#N)cnc3cc(OCCCN4CCN(C)CC4)c(OC)cc23)c(Cl)cc1Cl", "note": "[Bosutinib (SKI-606)]", "values": [
      {"measurement": "secreted FVIII-Gluc luciferase Z-score", "setting": "HEK293 WT BDD-FVIII-Gluc", "result": "inactive: -3.26"},
      {"measurement": "secreted FVIII-Gluc luciferase Z-score", "setting": "[1]", "result": "inactive: -11.1"}
    ]},
    {"smiles": "C=Cc1c(C)c2cc3nc(cc4[nH]c(cc5nc(cc1[nH]2)C(C)=C5CCC(=O)O)c(CCC(=O)OC)c4C)C1(C)C3=CC=C(C(=O)OC)C1C(=O)OC", "note": "(stereo not drawn) [Verteporfin (Visudyne)]", "values": [
      {"measurement": "secreted FVIII-Gluc luciferase Z-score", "setting": "HEK293 WT BDD-FVIII-Gluc", "result": "inactive: -7.99"},
      {"measurement": "secreted FVIII-Gluc luciferase Z-score", "setting": "[1]", "result": "inactive: -4.2"}
    ]},
    {"smiles": "Clc1ccc(C(Cn2ccnc2)OCc2csc3c(Cl)cccc23)c(Cl)c1", "note": "(stereo not drawn) [Sertaconazole nitrate]", "values": [
      {"measurement": "secreted FVIII-Gluc luciferase Z-score", "setting": "HEK293 WT BDD-FVIII-Gluc", "result": "inactive: -1.94"},
      {"measurement": "secreted FVIII-Gluc luciferase Z-score", "setting": "[1]", "result": "inactive: -2.59"}
    ]},
    {"smiles": "CN(C/C=C/C#CC(C)(C)C)Cc1cccc2ccccc12", "note": "[Terbinafine (Lamisil, Terbinex)]", "values": [
      {"measurement": "secreted FVIII-Gluc luciferase Z-score", "setting": "HEK293 WT BDD-FVIII-Gluc", "result": "inactive: -1.37"},
      {"measurement": "secreted FVIII-Gluc luciferase Z-score", "setting": "[1]", "result": "inactive: 0.187"}
    ]},
    {"smiles": "C[N+](C)(CCOc1ccccc1)Cc1ccccc1.O=C([O-])c1cc2ccccc2cc1O", "note": "[Bephenium Hydroxynaphthoate]", "values": [
      {"measurement": "secreted FVIII-Gluc luciferase Z-score", "setting": "HEK293 WT BDD-FVIII-Gluc", "result": "inactive: -0.666"},
      {"measurement": "secreted FVIII-Gluc luciferase Z-score", "setting": "[1]", "result": "inactive: 1.35"}
    ]},
    {"smiles": "COc1cc([C@@H]2c3cc4c(cc3[C@@H](O[C@@H]3O[C@@H]5CO[C@@H](C)O[C@H]5[C@H](O)[C@H]3O)[C@H]3COC(=O)[C@H]23)OCO4)cc(OC)c1O", "note": "[Etoposide (VP-16)]", "values": [
      {"measurement": "secreted FVIII-Gluc luciferase Z-score", "setting": "HEK293 WT BDD-FVIII-Gluc", "result": "inactive: -4.38"},
      {"measurement": "secreted FVIII-Gluc luciferase Z-score", "setting": "[1]", "result": "inactive: -14"}
    ]},
    {"smiles": "O=C(O)COCCN1CCN(C(c2ccccc2)c2ccc(Cl)cc2)CC1", "note": "(stereo not drawn) [Cetirizine Dihydrochloride]", "values": [
      {"measurement": "secreted FVIII-Gluc luciferase Z-score", "setting": "HEK293 WT BDD-FVIII-Gluc", "result": "inactive: -3"},
      {"measurement": "secreted FVIII-Gluc luciferase Z-score", "setting": "[1]", "result": "inactive: -0.00177"}
    ]},
    {"smiles": "CCOc1nc2cccc(C(=O)O)c2n1Cc1ccc(-c2ccccc2-c2noc(=O)[nH]2)cc1", "note": "[Azilsartan (TAK-536)]", "values": [
      {"measurement": "secreted FVIII-Gluc luciferase Z-score", "setting": "HEK293 WT BDD-FVIII-Gluc", "result": "inactive: 0.768"},
      {"measurement": "secreted FVIII-Gluc luciferase Z-score", "setting": "[1]", "result": "inactive: 0.127"}
    ]},
    {"smiles": "CN(CCOc1ccc(CC2SC(=O)NC2=O)cc1)c1ccccn1", "note": "(stereo not drawn) [Rosiglitazone maleate]", "values": [
      {"measurement": "secreted FVIII-Gluc luciferase Z-score", "setting": "HEK293 WT BDD-FVIII-Gluc", "result": "inactive: 1.38"},
      {"measurement": "secreted FVIII-Gluc luciferase Z-score", "setting": "[1]", "result": "inactive: -1.55"}
    ]},
    {"smiles": "CS(=O)(=O)c1ccc([C@@H](O)[C@@H](CF)NC(=O)C(Cl)Cl)cc1", "note": "[Florfenicol]", "values": [
      {"measurement": "secreted FVIII-Gluc luciferase Z-score", "setting": "HEK293 WT BDD-FVIII-Gluc", "result": "inactive: -0.949"},
      {"measurement": "secreted FVIII-Gluc luciferase Z-score", "setting": "[1]", "result": "inactive: -0.669"}
    ]},
    {"smiles": "C[C@@H]1C[C@H]2[C@@H]3C[C@H](F)C4=CC(=O)C=C[C@]4(C)[C@@]3(F)[C@@H](O)C[C@]2(C)[C@@]1(O)C(=O)CO", "note": "[Flumethasone]", "values": [
      {"measurement": "secreted FVIII-Gluc luciferase Z-score", "setting": "HEK293 WT BDD-FVIII-Gluc", "result": "active: 15.8"},
      {"measurement": "secreted FVIII-Gluc luciferase Z-score", "setting": "[1]", "result": "active: 5.64"}
    ]},
    {"smiles": "COC(=O)C1=C(C)NC(C)=C(C(=O)OCC(C)C)C1c1ccccc1[N+](=O)[O-]", "note": "(stereo not drawn) [Nisoldipine (Sular)]", "values": [
      {"measurement": "secreted FVIII-Gluc luciferase Z-score", "setting": "HEK293 WT BDD-FVIII-Gluc", "result": "inactive: -4.3"},
      {"measurement": "secreted FVIII-Gluc luciferase Z-score", "setting": "[1]", "result": "inactive: -0.749"}
    ]},
    {"smiles": "Cc1cc(NC(=O)C2=C(O)c3ccccc3S(=O)(=O)N2C)no1", "note": "[Isoxicam]", "values": [
      {"measurement": "secreted FVIII-Gluc luciferase Z-score", "setting": "HEK293 WT BDD-FVIII-Gluc", "result": "inactive: -2.03"},
      {"measurement": "secreted FVIII-Gluc luciferase Z-score", "setting": "[1]", "result": "inactive: 1.41"}
    ]},
    {"smiles": "O=C(O)c1cccnc1", "note": "[Niacin (Nicotinic acid)]", "values": [
      {"measurement": "secreted FVIII-Gluc luciferase Z-score", "setting": "HEK293 WT BDD-FVIII-Gluc", "result": "inactive: 0.208"},
      {"measurement": "secreted FVIII-Gluc luciferase Z-score", "setting": "[1]", "result": "inactive: -0.028"}
    ]},
    {"smiles": "CN(C)CCOC(c1ccccc1)c1ccccc1", "note": "[Diphenhydramine HCl (Benadryl)]", "values": [
      {"measurement": "secreted FVIII-Gluc luciferase Z-score", "setting": "HEK293 WT BDD-FVIII-Gluc", "result": "inactive: -3.79"},
      {"measurement": "secreted FVIII-Gluc luciferase Z-score", "setting": "[1]", "result": "inactive: -1.54"}
    ]},
    {"smiles": "CCCCCCCN(CC)CCCC(O)c1ccc(NS(C)(=O)=O)cc1", "note": "(stereo not drawn) [Ibutilide fumarate]", "values": [
      {"measurement": "secreted FVIII-Gluc luciferase Z-score", "setting": "HEK293 WT BDD-FVIII-Gluc", "result": "inactive: 0.0971"},
      {"measurement": "secreted FVIII-Gluc luciferase Z-score", "setting": "[1]", "result": "inactive: -0.0269"}
    ]},
    {"smiles": "NC(=O)c1ncn([C@@H]2O[C@H](CO)[C@@H](O)[C@H]2O)c1N", "note": "[Acadesine]", "values": [
      {"measurement": "secreted FVIII-Gluc luciferase Z-score", "setting": "HEK293 WT BDD-FVIII-Gluc", "result": "inactive: -2.7"},
      {"measurement": "secreted FVIII-Gluc luciferase Z-score", "setting": "[1]", "result": "inactive: -1.13"}
    ]},
    {"smiles": "CC[C@H](C)C(=O)O[C@H]1C[C@H](O)C=C2C=C[C@H](C)[C@H](CC[C@@H](O)C[C@@H](O)CC(=O)O)[C@H]21", "note": "[Pravastatin sodium]", "values": [
      {"measurement": "secreted FVIII-Gluc luciferase Z-score", "setting": "HEK293 WT BDD-FVIII-Gluc", "result": "inactive: -0.883"},
      {"measurement": "secreted FVIII-Gluc luciferase Z-score", "setting": "[1]", "result": "inactive: 0.18"}
    ]},
    {"smiles": "CC(C(=O)O)c1cccc(Oc2ccccc2)c1", "note": "(stereo not drawn) [Fenoprofen calcium hydrate]", "values": [
      {"measurement": "secreted FVIII-Gluc luciferase Z-score", "setting": "HEK293 WT BDD-FVIII-Gluc", "result": "inactive: -2.17"},
      {"measurement": "secreted FVIII-Gluc luciferase Z-score", "setting": "[1]", "result": "inactive: -1.46"}
    ]},
    {"smiles": "CC(=O)OCC(=O)NCCCOc1cccc(CN2CCCCC2)c1", "note": "[Roxatidine acetate HCl]", "values": [
      {"measurement": "secreted FVIII-Gluc luciferase Z-score", "setting": "HEK293 WT BDD-FVIII-Gluc", "result": "inactive: 0.107"},
      {"measurement": "secreted FVIII-Gluc luciferase Z-score", "setting": "[1]", "result": "inactive: -1.36"}
    ]}
  ]
}
